The values below come from the supplement of paper PMC12819154, “High-throughput peptide-centric local stability assay extends protein–ligand identification to membrane proteins, tissues and bacteria” (Nature Structural & Molecular Biology, 2025).

Sequences of proteins named here, by UniProt entry; tags and fusion partners are left off. A change or cut given only in a name is not applied to a line headed by its entry.
UniProt P23769: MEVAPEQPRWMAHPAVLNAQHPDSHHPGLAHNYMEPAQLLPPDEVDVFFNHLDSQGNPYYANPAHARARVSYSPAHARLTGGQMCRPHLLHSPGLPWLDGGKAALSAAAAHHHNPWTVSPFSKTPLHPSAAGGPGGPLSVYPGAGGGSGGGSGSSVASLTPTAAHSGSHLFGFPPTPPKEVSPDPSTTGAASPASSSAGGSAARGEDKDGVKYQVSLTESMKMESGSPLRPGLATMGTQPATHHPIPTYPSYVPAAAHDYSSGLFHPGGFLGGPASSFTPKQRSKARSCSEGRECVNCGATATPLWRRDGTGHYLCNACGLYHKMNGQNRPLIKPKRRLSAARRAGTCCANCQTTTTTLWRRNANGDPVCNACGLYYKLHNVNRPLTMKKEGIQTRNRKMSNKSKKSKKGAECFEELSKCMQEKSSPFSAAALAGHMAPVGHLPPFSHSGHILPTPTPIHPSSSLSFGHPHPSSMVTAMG
UniProt P17516: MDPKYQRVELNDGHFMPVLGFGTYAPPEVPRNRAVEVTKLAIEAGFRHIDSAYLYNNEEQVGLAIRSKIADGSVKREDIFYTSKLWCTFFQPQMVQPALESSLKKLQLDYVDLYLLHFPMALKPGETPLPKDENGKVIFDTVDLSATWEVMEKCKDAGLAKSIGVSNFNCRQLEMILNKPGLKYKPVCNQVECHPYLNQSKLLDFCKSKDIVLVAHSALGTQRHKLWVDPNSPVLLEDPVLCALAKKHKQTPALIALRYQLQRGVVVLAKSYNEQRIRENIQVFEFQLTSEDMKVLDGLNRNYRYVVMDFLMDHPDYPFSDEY
UniProt P28074: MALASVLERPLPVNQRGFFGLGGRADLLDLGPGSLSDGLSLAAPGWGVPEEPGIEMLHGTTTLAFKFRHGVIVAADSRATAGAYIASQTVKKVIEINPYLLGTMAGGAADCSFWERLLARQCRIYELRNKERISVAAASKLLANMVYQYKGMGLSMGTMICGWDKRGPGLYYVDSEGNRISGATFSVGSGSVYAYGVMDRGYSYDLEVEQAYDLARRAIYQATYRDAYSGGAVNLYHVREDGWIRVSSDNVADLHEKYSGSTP
UniProt P15848: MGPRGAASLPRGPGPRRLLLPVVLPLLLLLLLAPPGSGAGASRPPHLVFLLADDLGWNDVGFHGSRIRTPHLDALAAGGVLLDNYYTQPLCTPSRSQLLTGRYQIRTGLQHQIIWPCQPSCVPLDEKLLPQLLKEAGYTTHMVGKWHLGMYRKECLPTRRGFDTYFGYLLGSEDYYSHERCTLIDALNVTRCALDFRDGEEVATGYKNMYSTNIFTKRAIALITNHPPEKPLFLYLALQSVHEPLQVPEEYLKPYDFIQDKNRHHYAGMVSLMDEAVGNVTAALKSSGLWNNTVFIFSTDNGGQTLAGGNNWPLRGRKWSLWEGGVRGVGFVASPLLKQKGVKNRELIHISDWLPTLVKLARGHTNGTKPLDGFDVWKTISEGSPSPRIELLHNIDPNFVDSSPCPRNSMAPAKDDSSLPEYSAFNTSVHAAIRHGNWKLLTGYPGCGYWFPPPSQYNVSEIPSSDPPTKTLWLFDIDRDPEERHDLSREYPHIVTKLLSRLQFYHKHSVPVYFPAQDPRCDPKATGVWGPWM
UniProt P17483: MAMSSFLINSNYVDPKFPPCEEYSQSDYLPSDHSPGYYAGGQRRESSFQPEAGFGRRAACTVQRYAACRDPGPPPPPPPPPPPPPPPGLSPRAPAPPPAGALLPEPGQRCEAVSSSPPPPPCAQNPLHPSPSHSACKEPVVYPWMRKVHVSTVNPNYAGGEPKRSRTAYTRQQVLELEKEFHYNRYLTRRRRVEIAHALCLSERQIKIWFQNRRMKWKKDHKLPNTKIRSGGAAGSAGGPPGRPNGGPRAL
UniProt P16118: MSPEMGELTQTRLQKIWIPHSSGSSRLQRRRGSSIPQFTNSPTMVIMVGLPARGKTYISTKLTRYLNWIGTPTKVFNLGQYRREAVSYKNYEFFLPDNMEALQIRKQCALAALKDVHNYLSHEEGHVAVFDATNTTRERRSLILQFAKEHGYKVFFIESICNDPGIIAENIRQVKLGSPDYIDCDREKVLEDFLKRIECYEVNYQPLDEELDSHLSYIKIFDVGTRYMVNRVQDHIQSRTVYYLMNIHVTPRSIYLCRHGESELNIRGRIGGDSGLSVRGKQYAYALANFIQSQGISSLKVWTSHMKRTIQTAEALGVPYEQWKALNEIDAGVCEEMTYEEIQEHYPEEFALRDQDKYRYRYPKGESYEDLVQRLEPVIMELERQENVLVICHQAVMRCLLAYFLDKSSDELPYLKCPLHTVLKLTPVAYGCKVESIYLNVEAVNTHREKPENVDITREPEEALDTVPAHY
UniProt P22061: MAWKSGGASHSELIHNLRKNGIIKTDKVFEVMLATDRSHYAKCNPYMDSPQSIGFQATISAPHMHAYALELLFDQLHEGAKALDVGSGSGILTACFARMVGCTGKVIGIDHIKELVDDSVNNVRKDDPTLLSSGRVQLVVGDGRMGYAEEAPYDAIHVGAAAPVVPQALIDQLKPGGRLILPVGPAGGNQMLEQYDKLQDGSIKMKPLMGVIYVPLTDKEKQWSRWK
UniProt P27797, whole entry: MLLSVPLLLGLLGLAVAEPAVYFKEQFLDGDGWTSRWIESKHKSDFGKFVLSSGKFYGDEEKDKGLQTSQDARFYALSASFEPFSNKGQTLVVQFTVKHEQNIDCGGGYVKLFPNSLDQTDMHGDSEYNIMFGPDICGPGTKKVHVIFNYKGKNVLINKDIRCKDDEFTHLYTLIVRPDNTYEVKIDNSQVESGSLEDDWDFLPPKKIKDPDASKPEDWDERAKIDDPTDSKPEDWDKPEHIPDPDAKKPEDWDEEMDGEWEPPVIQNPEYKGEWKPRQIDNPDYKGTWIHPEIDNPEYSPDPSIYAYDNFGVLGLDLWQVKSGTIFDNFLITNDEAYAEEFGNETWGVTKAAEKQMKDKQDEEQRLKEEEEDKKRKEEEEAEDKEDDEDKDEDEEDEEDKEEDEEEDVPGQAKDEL
UniProt P13682: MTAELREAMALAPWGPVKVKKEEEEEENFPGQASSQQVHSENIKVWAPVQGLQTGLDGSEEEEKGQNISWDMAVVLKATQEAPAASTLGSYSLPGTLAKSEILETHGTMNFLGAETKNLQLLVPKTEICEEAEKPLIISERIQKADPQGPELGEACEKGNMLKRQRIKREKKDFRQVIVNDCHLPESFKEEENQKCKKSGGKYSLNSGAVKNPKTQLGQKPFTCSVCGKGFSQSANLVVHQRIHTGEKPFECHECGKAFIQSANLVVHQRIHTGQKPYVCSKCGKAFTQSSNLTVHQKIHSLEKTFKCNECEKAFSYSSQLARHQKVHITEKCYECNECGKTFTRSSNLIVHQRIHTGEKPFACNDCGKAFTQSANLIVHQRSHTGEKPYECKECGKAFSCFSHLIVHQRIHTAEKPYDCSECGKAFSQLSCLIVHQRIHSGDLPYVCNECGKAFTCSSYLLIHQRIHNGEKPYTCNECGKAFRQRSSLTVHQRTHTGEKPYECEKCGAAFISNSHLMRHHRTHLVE
UniProt P17096: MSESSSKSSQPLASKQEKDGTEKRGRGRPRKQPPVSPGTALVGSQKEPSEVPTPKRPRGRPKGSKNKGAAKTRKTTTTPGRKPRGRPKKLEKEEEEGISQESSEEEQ
UniProt P21695: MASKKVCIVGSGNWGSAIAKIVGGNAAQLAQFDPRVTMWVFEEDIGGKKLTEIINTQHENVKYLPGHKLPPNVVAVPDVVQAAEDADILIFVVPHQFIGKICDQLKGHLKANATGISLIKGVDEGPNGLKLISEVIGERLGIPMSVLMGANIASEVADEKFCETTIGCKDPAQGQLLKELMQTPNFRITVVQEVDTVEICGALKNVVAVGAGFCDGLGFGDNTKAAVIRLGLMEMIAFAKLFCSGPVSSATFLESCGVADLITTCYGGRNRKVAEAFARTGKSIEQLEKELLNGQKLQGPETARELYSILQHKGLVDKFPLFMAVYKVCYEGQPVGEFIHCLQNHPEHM
UniProt P25686: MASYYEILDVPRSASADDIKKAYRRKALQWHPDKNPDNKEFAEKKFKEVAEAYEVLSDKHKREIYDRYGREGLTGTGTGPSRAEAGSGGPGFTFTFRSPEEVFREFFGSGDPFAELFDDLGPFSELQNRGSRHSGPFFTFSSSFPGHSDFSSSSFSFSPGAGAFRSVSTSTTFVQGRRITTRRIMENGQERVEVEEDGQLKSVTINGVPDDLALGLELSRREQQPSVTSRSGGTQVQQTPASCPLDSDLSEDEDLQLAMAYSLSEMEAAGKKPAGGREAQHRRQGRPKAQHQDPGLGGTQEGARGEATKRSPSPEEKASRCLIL
UniProt P15976: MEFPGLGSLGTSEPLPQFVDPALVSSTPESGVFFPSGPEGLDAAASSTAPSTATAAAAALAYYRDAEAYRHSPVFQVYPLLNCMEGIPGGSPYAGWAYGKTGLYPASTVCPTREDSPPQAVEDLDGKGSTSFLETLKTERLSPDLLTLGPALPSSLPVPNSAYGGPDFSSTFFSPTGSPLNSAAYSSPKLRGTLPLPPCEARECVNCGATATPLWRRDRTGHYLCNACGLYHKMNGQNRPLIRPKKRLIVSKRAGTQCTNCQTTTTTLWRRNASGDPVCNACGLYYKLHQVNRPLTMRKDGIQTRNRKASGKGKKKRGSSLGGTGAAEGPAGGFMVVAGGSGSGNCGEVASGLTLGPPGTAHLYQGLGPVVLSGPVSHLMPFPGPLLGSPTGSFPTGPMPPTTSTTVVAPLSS
UniProt P25205: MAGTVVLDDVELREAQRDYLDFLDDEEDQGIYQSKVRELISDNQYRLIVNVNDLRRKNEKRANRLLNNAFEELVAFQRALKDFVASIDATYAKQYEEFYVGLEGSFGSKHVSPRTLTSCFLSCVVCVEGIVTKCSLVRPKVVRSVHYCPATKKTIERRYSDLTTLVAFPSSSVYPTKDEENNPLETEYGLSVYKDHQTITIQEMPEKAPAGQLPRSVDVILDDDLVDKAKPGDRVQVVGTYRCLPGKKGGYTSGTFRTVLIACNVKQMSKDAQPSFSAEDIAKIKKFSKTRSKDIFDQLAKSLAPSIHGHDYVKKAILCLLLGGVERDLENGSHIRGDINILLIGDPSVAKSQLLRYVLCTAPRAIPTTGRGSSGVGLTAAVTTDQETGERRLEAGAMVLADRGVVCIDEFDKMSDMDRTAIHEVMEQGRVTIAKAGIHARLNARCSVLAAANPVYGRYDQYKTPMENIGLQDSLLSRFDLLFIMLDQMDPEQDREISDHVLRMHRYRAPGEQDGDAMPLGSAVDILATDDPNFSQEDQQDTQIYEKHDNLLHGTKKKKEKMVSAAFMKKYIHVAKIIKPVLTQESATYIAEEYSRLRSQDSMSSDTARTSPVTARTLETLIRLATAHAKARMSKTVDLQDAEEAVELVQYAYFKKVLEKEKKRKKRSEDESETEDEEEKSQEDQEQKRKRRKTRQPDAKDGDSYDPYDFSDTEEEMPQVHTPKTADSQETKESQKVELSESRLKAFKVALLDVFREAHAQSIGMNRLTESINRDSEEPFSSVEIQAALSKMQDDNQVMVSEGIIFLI
UniProt P19447: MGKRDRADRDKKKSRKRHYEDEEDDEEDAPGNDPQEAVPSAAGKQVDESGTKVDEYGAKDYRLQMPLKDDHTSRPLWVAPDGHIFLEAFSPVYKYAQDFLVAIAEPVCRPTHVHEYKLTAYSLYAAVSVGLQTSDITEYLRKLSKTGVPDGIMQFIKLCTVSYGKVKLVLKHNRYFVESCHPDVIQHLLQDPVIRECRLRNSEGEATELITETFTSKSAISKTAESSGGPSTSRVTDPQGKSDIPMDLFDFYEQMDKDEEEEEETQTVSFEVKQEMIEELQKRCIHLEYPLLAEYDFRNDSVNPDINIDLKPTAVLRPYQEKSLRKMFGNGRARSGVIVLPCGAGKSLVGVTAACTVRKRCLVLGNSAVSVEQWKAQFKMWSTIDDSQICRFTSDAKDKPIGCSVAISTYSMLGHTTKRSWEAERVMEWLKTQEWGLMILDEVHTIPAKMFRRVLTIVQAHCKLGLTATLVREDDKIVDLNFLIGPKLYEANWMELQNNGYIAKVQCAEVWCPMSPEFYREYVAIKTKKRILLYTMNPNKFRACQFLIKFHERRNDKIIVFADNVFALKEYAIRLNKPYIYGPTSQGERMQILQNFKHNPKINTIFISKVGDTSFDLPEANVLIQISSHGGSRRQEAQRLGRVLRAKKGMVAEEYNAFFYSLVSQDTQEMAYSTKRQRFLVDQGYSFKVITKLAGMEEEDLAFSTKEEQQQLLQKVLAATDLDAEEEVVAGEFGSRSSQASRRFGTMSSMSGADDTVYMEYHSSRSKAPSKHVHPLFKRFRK
UniProt P14550: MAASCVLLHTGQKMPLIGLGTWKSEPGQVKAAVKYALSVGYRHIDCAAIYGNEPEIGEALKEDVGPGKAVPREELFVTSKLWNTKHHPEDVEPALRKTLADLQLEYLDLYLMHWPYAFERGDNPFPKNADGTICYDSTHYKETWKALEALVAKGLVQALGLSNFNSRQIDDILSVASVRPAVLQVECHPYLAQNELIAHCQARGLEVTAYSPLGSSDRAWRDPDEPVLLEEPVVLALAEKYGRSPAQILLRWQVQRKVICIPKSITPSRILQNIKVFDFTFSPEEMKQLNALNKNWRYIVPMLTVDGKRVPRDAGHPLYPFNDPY

Compound in the assay: CN[C@@H]1C[C@H]2O[C@@](C)([C@@H]1OC)n1c3ccccc3c3c4c(c5c6ccccc6n2c5c31)C(=O)NC4 [staurosporine]
Kind of assay: log2 fold change of tryptic peptide abundance, ligand vs vehicle (limited proteolysis) (log2 ratio); higher = more trypsin-susceptible (destabilized). The note with it: ligand concentration: 20 uM; sample: K562 cleared lysate; digestion: 4 min, 22 C (HT-PELSA RT4min, Orbitrap Astral).

This is one part of the list. Most values lie at the level of the controls, where differences are scatter.

With “RPL13 (peptide sequence: IAPRPASGPIRPIVR, peptide start residue: 46) (UniProt P26373)”, the log2 fold change was -0.122.

“GATA2 (peptide sequence: AALSAAAAHHHNPWTVSPFSK, peptide start residue: 103) (UniProt P23769)”: the log2 fold change is -0.445.

Consider “SON (peptide sequence: SAASPVVSSMPER, peptide start residue: 1766) (UniProt P18583)”, for which the log2 fold change turned out to be 0.453.

“UniProt P17516 (peptide sequence: SKIADGSVKR, peptide start residue: 67)”: the log2 fold change is 0.689.

Take “PSMB5 (peptide sequence: ATAGAYIASQTVKK, peptide start residue: 79) (UniProt P28074)”: the log2 fold change is -0.55.

Regarding “ARSB (peptide sequence: GVGFVASPLLK, peptide start residue: 328) (UniProt P15848)”, the log2 fold change was -0.307.

Turning to “HOXB4 (peptide sequence: RVEIAHALCLSER, peptide start residue: 192) (UniProt P17483)”, the log2 fold change was -0.226.

Take “RPS2 (peptide sequence: IMPVQKQTR, peptide start residue: 109) (UniProt P15880)”: the log2 fold change was determined as 0.478.

Take “PFKFB1 (peptide sequence: QENVLVICHQAVMR, peptide start residue: 383) (UniProt P16118)”: the log2 fold change came out at 0.396.

On to “EZR (peptide sequence: DDRNEEKR, peptide start residue: 510) (UniProt P15311)”, for which the log2 fold change was determined as 1.39.

“PCMT1 (peptide sequence: SGGASHSELIHNLRK, peptide start residue: 5) (UniProt P22061)”: the log2 fold change is -0.701.

As to “CALR (peptide sequence: LKEEEEDKK, peptide start residue: 367) (UniProt P27797)”, the log2 fold change stood at 0.195.

In the case of “RPL10 (peptide sequence: FNADEFEDMVAEKR, peptide start residue: 176) (UniProt P27635)”, the log2 fold change was -0.089.

With “UniProt P13682 (peptide sequence: SHTGEKPYECK, peptide start residue: 216)”, the log2 fold change is 0.57.

For the target “HMGA1 (peptide sequence: KTTTTPGR, peptide start residue: 74) (UniProt P17096)”, the log2 fold change turned out to be 0.0658.

In the case of “GPD1 (peptide sequence: KLTEIINTQHENVK, peptide start residue: 49) (UniProt P21695)”, the log2 fold change was found to be 0.803.

Regarding “PIK3R1 (peptide sequence: DQYLMWLTQK, peptide start residue: 578) (UniProt P27986)”, the log2 fold change is -0.279.

In the case of “UniProt P24928 (peptide sequence: QDVIEVIEK, peptide start residue: 711)”, the log2 fold change was -0.813.

As to “DNAJB2 (peptide sequence: SPEEVFR, peptide start residue: 98) (UniProt P25686)”, the log2 fold change is -0.253.

In the case of “GATA1 (peptide sequence: GSTSFLETLKTER, peptide start residue: 128) (UniProt P15976)”, the log2 fold change was -0.437.

Regarding “DDX5 (peptide sequence: TIVFVETK, peptide start residue: 344) (UniProt P17844)”, the log2 fold change was -0.133.

As for “MCM3 (peptide sequence: AILCLLLGGVER, peptide start residue: 316) (UniProt P25205)”, the log2 fold change was -0.158.

Turning to “DCK (peptide sequence: STFVNILK, peptide start residue: 35) (UniProt P27707)”, the log2 fold change was -0.187.

Regarding “FLNA (peptide sequence: FNGTHIPGSPFK, peptide start residue: 2406) (UniProt P21333)”, the log2 fold change is 0.192.

Regarding “ERCC3 (peptide sequence: QVDESGTKVDEYGAK, peptide start residue: 45) (UniProt P19447)”, the log2 fold change turned out to be 0.377.

Regarding “CBL (peptide sequence: VPVSAPSSSDPWTGR, peptide start residue: 598) (UniProt P22681)”, the log2 fold change is -0.578.

As for “ATP6V1C1 (peptide sequence: KNAGSLLTR, peptide start residue: 156) (UniProt P21283)”, the log2 fold change is 0.104.

Consider “PPP3CB (peptide sequence: EESESVLTLK, peptide start residue: 424) (UniProt P16298)”, for which the log2 fold change is 0.555.

“AKR1A1 (peptide sequence: AASCVLLHTGQK, peptide start residue: 2) (UniProt P14550)”: the log2 fold change was -0.507.
